From patent US20020156031 come the findings set out here.

By UniProt entry, the sequences of proteins in these tests, tags left out. Residues count along the entry.
UniProt Q8VI67, 27-428: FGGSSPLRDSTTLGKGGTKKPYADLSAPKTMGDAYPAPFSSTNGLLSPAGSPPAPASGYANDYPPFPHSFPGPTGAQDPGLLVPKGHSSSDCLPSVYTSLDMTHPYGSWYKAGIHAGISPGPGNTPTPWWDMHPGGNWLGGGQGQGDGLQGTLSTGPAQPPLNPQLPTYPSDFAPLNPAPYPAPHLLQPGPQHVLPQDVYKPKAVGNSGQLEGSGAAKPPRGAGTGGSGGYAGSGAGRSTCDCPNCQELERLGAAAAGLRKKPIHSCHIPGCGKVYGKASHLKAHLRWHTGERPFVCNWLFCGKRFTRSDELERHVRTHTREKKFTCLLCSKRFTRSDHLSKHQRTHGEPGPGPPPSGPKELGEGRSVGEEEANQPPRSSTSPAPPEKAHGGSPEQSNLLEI

Results from cells or extracts need not show a direct contact.

The series deals with Osterix (Osx) (Mus musculus) (UniProt Q8VI67). As to the kind of experiment: EMSA. To be noted: protein in a lysate after overexpression, label: 32P. (Mobility shift assays separate free from complexed probe on a gel.)

In the case of “ATTCGATCGGGGCGGGGCGAGC (double strand) [Sp1 consensus oligo]”, under “dose dependent with extract, blocked by anti-C-terminal Osterix antibody, restored by peptide, room temp 20 min, gel at 4 C”, the binding result is “binds”.

With “CGTAGAGCCACACCCTGAAGG (double strand) [EKLF consensus oligo]”, the binding result (bound efficiently) was “binds”.

For the sequence “GCTCGGGGGCGGGGTCTCAGGTTA (double strand) [Col2a1 (printed Co12a1)]”, the binding result (bound efficiently) is reported as “binds”.
